Experimental data taken from PubChem BioAssay AID188 (DTP/NCI, 2004).
Values are animals surviving of animals treated; these mice carried no tumour. Survivors were counted at the toxicity check, usually on the fifth day, unless a day is given; later deaths do not show. Schedules are NCI's codes, taken here to give the interval after Q, in days (D) or hours (H), and the number of doses after X.

Test system: CD2F1 mice, nontumored, toxicity/survival
Experiment: NCI In Vivo Anticancer Drug Screen. Data for tumor model Nontumored Animals (Toxicity Test) in CD2F1 (CDF1) mice
[1] = dose: 1.0 mg/kg/injection, schedule: Q01DX001 (ip), vehicle: DMSO
[2] = dose: 10.0 mg/kg/injection, schedule: Q01DX001 (ip), vehicle: DMSO
[3] = dose: 100.0 mg/kg/injection, schedule: Q01DX001 (ip), vehicle: DMSO

SMILES: COc1cc2c3c(c1)-c1c(ccc(OC)c1OC)CC3N(CCN(CCCl)CCCl)CC2 (stereo unspecified)
- survivor count [1]: 2 of 2
- survivor count [2]: 2 of 2
- survivor count [3]: 0 of 2

SMILES: O=c1c2ccccc2c(-c2ccc(N(CCCl)CCCl)cc2)cn1CCCl
- survivor count (dose: 1.0 mg/kg/injection, schedule: Q01DX001 (ip), vehicle: Klucel (hydroxypropylcellulose) (HPC)): 2 of 2
- survivor count (dose: 10.0 mg/kg/injection, schedule: Q01DX001 (ip), vehicle: Klucel (hydroxypropylcellulose) (HPC)): 2 of 2
- survivor count (dose: 100.0 mg/kg/injection, schedule: Q01DX001 (ip), vehicle: Klucel (hydroxypropylcellulose) (HPC)): 2 of 2

SMILES: C=CN1CCCC1=O
- survivor count (dose: 0.25 mg/kg/injection, schedule: Q01DX001 (iv), vehicle: saline): 10 of 10
- survivor count (dose: 0.25 mg/kg/injection, schedule: Q01DX005 (iv), vehicle: saline): 10 of 10
- survivor count (dose: 0.25 mg/kg/injection, schedule: Q04DX003 (iv), vehicle: saline): 10 of 10
- survivor count (dose: 0.5 mg/kg/injection, schedule: Q01DX001 (ip), vehicle: saline): 10 of 10
- survivor count (dose: 0.5 mg/kg/injection, schedule: Q01DX001 (iv), vehicle: saline): 10 of 10
- survivor count (dose: 0.5 mg/kg/injection, schedule: Q01DX005 (ip), vehicle: saline): 10 of 10
- survivor count (dose: 0.5 mg/kg/injection, schedule: Q01DX005 (iv), vehicle: saline): 10 of 10
- survivor count (dose: 0.5 mg/kg/injection, schedule: Q01DX009 (ip), vehicle: saline): 10 of 10
- survivor count (dose: 0.5 mg/kg/injection, schedule: Q03HX008 (ip), vehicle: saline): 10 of 10
- survivor count (dose: 0.5 mg/kg/injection, schedule: Q03HX016 (ip), vehicle: saline): 10 of 10
- survivor count (dose: 0.5 mg/kg/injection, schedule: Q03HX024 (ip), vehicle: saline): 10 of 10
- survivor count (dose: 0.5 mg/kg/injection, schedule: Q04DX003 (ip), vehicle: saline): 10 of 10
- survivor count (dose: 0.5 mg/kg/injection, schedule: Q04DX003 (iv), vehicle: saline): 10 of 10
- survivor count (dose: 0.5 mg/kg/injection, schedule: Q08DX002 (ip), vehicle: saline): 10 of 10
- survivor count (dose: 1.0 mg/kg/injection, schedule: Q01DX001 (ip), vehicle: saline): 10 of 10
- survivor count (dose: 1.0 mg/kg/injection, schedule: Q01DX001 (iv), vehicle: saline): 10 of 10
- survivor count (dose: 1.0 mg/kg/injection, schedule: Q01DX005 (ip), vehicle: saline): 10 of 10
- survivor count (dose: 1.0 mg/kg/injection, schedule: Q01DX005 (iv), vehicle: saline): 10 of 10
- survivor count (dose: 1.0 mg/kg/injection, schedule: Q01DX009 (ip), vehicle: saline): 10 of 10
- survivor count (dose: 1.0 mg/kg/injection, schedule: Q03HX008 (ip), vehicle: saline): 8 of 10
- survivor count (dose: 1.0 mg/kg/injection, schedule: Q03HX016 (ip), vehicle: saline): 8 of 10
- survivor count (dose: 1.0 mg/kg/injection, schedule: Q03HX024 (ip), vehicle: saline): 8 of 9
- survivor count (dose: 1.0 mg/kg/injection, schedule: Q04DX003 (ip), vehicle: saline): 10 of 10
- survivor count (dose: 1.0 mg/kg/injection, schedule: Q04DX003 (iv), vehicle: saline): 10 of 10
- survivor count (dose: 1.0 mg/kg/injection, schedule: Q08DX002 (ip), vehicle: saline): 9 of 10
- survivor count (dose: 2.0 mg/kg/injection, schedule: Q01DX001 (ip), vehicle: saline): 10 of 10
- survivor count (dose: 2.0 mg/kg/injection, schedule: Q01DX005 (ip), vehicle: saline): 10 of 10
- survivor count (dose: 2.0 mg/kg/injection, schedule: Q01DX009 (ip), vehicle: saline): 9 of 10
- survivor count (dose: 2.0 mg/kg/injection, schedule: Q03HX008 (ip), vehicle: saline): 0 of 10
- survivor count (dose: 2.0 mg/kg/injection, schedule: Q03HX016 (ip), vehicle: saline): 1 of 10
- survivor count (dose: 2.0 mg/kg/injection, schedule: Q03HX024 (ip), vehicle: saline): 1 of 10
- survivor count (dose: 2.0 mg/kg/injection, schedule: Q04DX003 (ip), vehicle: saline): 10 of 10
- survivor count (dose: 2.0 mg/kg/injection, schedule: Q08DX002 (ip), vehicle: saline): 10 of 10
- survivor count (dose: 1.9 grams/kg/injection, schedule: Q01DX001 (iv), vehicle: saline): 10 of 10
- survivor count (dose: 1.9 grams/kg/injection, schedule: Q01DX005 (iv), vehicle: saline): 10 of 10
- survivor count (dose: 1.9 grams/kg/injection, schedule: Q03HX008 (ip), vehicle: saline): 10 of 10
- survivor count (dose: 1.9 grams/kg/injection, schedule: Q03HX016 (ip), vehicle: saline): 10 of 10
- survivor count (dose: 1.9 grams/kg/injection, schedule: Q03HX024 (ip), vehicle: saline): 10 of 10
- survivor count (dose: 1.9 grams/kg/injection, schedule: Q04DX003 (iv), vehicle: saline): 10 of 10
- survivor count (dose: 3.8 grams/kg/injection, schedule: Q01DX001 (ip), vehicle: saline): 10 of 10
- survivor count (dose: 3.8 grams/kg/injection, schedule: Q01DX001 (iv), vehicle: saline): 10 of 10
- survivor count (dose: 3.8 grams/kg/injection, schedule: Q01DX005 (ip), vehicle: saline): 10 of 10
- survivor count (dose: 3.8 grams/kg/injection, schedule: Q01DX005 (iv), vehicle: saline): 10 of 10
- survivor count (dose: 3.8 grams/kg/injection, schedule: Q01DX009 (ip), vehicle: saline): 10 of 10
- survivor count (dose: 3.8 grams/kg/injection, schedule: Q03HX008 (ip), vehicle: saline): 10 of 10
- survivor count (dose: 3.8 grams/kg/injection, schedule: Q03HX016 (ip), vehicle: saline): 10 of 10
- survivor count (dose: 3.8 grams/kg/injection, schedule: Q03HX024 (ip), vehicle: saline): 10 of 10
- survivor count (dose: 3.8 grams/kg/injection, schedule: Q04DX003 (ip), vehicle: saline): 10 of 10
- survivor count (dose: 3.8 grams/kg/injection, schedule: Q04DX003 (iv), vehicle: saline): 10 of 10
- survivor count (dose: 3.8 grams/kg/injection, schedule: Q08DX002 (ip), vehicle: saline): 10 of 10
- survivor count (dose: 7.5 grams/kg/injection, schedule: Q01DX001 (ip), vehicle: saline): 10 of 10
- survivor count (dose: 7.5 grams/kg/injection, schedule: Q01DX001 (iv), vehicle: saline): 10 of 10
- survivor count (dose: 7.5 grams/kg/injection, schedule: Q01DX005 (ip), vehicle: saline): 10 of 10
- survivor count (dose: 7.5 grams/kg/injection, schedule: Q01DX005 (iv), vehicle: saline): 10 of 10
- survivor count (dose: 7.5 grams/kg/injection, schedule: Q01DX009 (ip), vehicle: saline): 10 of 10
- survivor count (dose: 7.5 grams/kg/injection, schedule: Q03HX008 (ip), vehicle: saline): 5 of 10
- survivor count (dose: 7.5 grams/kg/injection, schedule: Q03HX016 (ip), vehicle: saline): 9 of 10
- survivor count (dose: 7.5 grams/kg/injection, schedule: Q03HX024 (ip), vehicle: saline): 10 of 10
- survivor count (dose: 7.5 grams/kg/injection, schedule: Q04DX003 (ip), vehicle: saline): 10 of 10
- survivor count (dose: 7.5 grams/kg/injection, schedule: Q04DX003 (iv), vehicle: saline): 10 of 10
- survivor count (dose: 7.5 grams/kg/injection, schedule: Q08DX002 (ip), vehicle: saline): 10 of 10

SMILES: CC(=O)N(C(C)=O)c1ncc2ccccc2c1-c1ccc(N)cc1
- survivor count [1]: 2 of 2
- survivor count [2]: 2 of 2
- survivor count [3]: 2 of 2

SMILES: CC(=O)Nc1ncc2ccccc2c1-c1ccc(N(CCO)CCO)cc1
- survivor count [1]: 2 of 2
- survivor count [2]: 2 of 2
- survivor count [3]: 2 of 2

SMILES: CN(C)/N=N/c1nc[nH]c1C(N)=O
- survivor count (dose: 39.0 mg/kg/injection, schedule: Q01DX009 (ip), vehicle: Klucel (hydroxypropylcellulose) (HPC)): 10 of 10
- survivor count (dose: 50.0 mg/kg/injection, schedule: Q02DX005 (ip), vehicle: Klucel (hydroxypropylcellulose) (HPC)): 4 of 4
- survivor count (dose: 59.0 mg/kg/injection, schedule: Q01DX009 (ip), vehicle: Klucel (hydroxypropylcellulose) (HPC)): 10 of 10
- survivor count (dose: 89.0 mg/kg/injection, schedule: Q01DX009 (ip), vehicle: Klucel (hydroxypropylcellulose) (HPC)): 10 of 10
- survivor count (dose: 100.0 mg/kg/injection, schedule: Q02DX005 (ip), vehicle: Klucel (hydroxypropylcellulose) (HPC)): 4 of 4
- survivor count (dose: 133.0 mg/kg/injection, schedule: Q01DX009 (ip), vehicle: Klucel (hydroxypropylcellulose) (HPC)): 10 of 10
- survivor count (dose: 200.0 mg/kg/injection, schedule: Q01DX009 (ip), vehicle: Klucel (hydroxypropylcellulose) (HPC)): 10 of 10
- survivor count (dose: 200.0 mg/kg/injection, schedule: Q02DX005 (ip), vehicle: Klucel (hydroxypropylcellulose) (HPC)): 4 of 4
- survivor count (dose: 400.0 mg/kg/injection, schedule: Q02DX005 (ip), vehicle: Klucel (hydroxypropylcellulose) (HPC)): 4 of 4

SMILES: COc1ccc2c(c1O)-c1cc(O)cc3c1C(C2)N(CCCl)CC3 (stereo unspecified)
- survivor count [1]: 2 of 2
- survivor count [2]: 2 of 2
- survivor count [3]: 2 of 2

SMILES: COc1ccc2c(c1OC(C)=O)-c1cc(O)cc3c1C(C2)N(C(=O)CN(CCCl)CCCl)CC3 (stereo unspecified)
- survivor count [1]: 2 of 2
- survivor count [2]: 2 of 2
- survivor count [3]: 2 of 2

SMILES: Nc1nc(N)nc(CCC(Br)(Br)Br)n1
- survivor count (dose: 1.0 mg/kg/injection, schedule: Q01DX001 (ip), vehicle: distilled water + Tween-80): 2 of 2
- survivor count (dose: 10.0 mg/kg/injection, schedule: Q01DX001 (ip), vehicle: distilled water + Tween-80): 2 of 2
- survivor count (dose: 100.0 mg/kg/injection, schedule: Q01DX001 (ip), vehicle: distilled water + Tween-80): 2 of 2
